Experimental data: article PMC11066007, “CORVET-specific subunit levels determine the balance between HOPS/CORVET endosomal tethering complexes” (Scientific Reports, 2024)
No constants are given. Whether binding was seen depends on the method and setting. In cells and extracts the contact can be indirect. Some binding calls cover weakened binding; strength is not graded here. Tags and fused reporters may be left off the sequences shown.

Biological target: T1, VPS11 (human (endogenous in HEK293)) (UniProt Q9H270)
T1 sequence: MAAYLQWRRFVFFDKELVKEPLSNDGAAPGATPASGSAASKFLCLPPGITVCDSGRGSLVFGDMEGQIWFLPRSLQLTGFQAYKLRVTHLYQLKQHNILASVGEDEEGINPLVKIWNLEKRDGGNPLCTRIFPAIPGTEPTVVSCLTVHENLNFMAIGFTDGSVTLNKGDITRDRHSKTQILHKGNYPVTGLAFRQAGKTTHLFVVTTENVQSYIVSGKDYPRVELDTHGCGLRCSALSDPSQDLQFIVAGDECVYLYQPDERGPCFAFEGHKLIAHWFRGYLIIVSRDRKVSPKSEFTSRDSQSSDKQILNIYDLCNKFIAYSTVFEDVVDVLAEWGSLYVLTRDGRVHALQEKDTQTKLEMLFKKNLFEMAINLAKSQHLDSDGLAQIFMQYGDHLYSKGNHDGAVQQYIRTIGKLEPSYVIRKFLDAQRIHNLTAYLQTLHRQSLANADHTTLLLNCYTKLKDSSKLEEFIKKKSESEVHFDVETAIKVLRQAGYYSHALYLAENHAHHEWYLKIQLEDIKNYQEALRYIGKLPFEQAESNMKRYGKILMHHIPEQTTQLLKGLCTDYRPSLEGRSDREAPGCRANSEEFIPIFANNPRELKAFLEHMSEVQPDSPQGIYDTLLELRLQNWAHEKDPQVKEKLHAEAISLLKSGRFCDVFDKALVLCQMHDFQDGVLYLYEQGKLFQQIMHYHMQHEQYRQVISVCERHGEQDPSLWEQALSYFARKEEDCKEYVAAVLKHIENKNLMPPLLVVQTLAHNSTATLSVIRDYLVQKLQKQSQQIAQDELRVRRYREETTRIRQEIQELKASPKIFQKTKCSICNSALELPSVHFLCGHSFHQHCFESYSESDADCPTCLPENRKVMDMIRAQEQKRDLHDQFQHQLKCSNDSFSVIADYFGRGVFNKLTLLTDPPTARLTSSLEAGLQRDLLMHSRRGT
Assay: co-IP; anti-FLAG beads on total lysates of HEK293 cells stably transfected with a FLAG-tagged specific subunit, with or without transient overexpression of the counterpart subunit (control: pCMV); endogenous VPS11 and VPS18 detected by western blot, densitometry with ImageJ; lysis buffer 50 mM TRIS-HCl pH 7.5, 150 mM NaCl, 1% Triton X-100, 5 mM EDTA; 1.5 h at 4 °C

- binding: binds
B1: VPS8 (untagged) (protein, UniProt Q8N3P4 1-1428)
chain: MENEPDHENVEQSLCAKTSEEELNKSFNLEASLSKFSYIDMDKELEFKNDLIDDKEFDIPQVDTPPTLESILNETDDEDESFILEDPTLLNIDTIDSHSYDTSSVASSDSGDRTNLKRKKKLPDSFSLHGSVMRHSLLKGISAQIVSAADKVDAGLPTAIAVSSLIAVGTSHGLALIFGKDQNQALRLCLGSTSVGGQYGAISALSINNDCSRLLCGFAKGQITMWDLASGKLLRSITDAHPPGTAILHIKFTDDPTLAICNDSGGSVFELTFKRVMGVRTCESRCLFSGSKGEVCCIEPLHSKPELKDHPITQFSLLAMASLTKILVIGLKPSLKVWMTFPYGRMDPSSVPLLAWHFVAVQNYVNPMLAFCRGDVVHFLLVKRDESGAIHVTKQKHLHLYYDLINFTWINSRTVVLLDSVEKLHVIDRQTQEELETVEISEVQLVYNSSHFKSLATGGNVSQALALVGEKACYQSISSYGGQIFYLGTKSVYVMMLRSWRERVDHLLKQDCLTEALALAWSFHEGKAKAVVGLSGDASKRKAIVADRMVEILFHYADRALKKCPDQGKIQVMEQHFQDMVPVIVDYCLLLQRKDLLFSQMYDKLSENSVAKGVFLECLEPYILSDKLVGITPQVMKDLIVHFQDKKLMENVEALIVHMDITSLDIQQVVLMCWENRLYDAMIYVYNRGMNEFISPMEKLFRVIAPPLNAGKTLTDEQVVMGNKLLVYISCCLAGRAYPLGDIPEDLVPLVKNQVFEFLIRLHSAEASPEEEIYPYIRTLLHFDTREFLNVLALTFEDFKNDKQAVEYQQRIVDILLKVMVENSDFTPSQVGCLFTFLARQLAKPDNTLFVNRTLFDQVLEFLCSPDDDSRHSERQQVLLELLQAGGIVQFEESRLIRMAEKAEFYQICEFMYEREHQYDKIIDCYLRDPLREEEVFNYIHNILSIPGHSAEEKQSVWQKAMDHIEELVSLKPCKAAELVATHFSGHIETVIKKLQNQVLLFKFLRSLLDPREGIHVNQELLQISPCITEQFIELLCQFNPTQVIETLQVLECYRLEETIQITQKYQLHEVTAYLLEKKGDIHGAFLIMLERLQSKLQEVTHQGENTKEDPSLKDVEDTMVETIALCQRNSHNLNQQQREALWFPLLEAMMAPQKLSSSAIPHLHSEALKSLTMQVLNSMAAFIALPSILQRILQDPVYGKGKLGEIQGLILGMLDTFNYEQTLLETTTSLLNQDLHWSLCNLRASVTRGLNPKQDYCSICLQQYKRRQEMADEIIVFSCGHLYHSFCLQNKECTVEFEGQTRWTCYKCSSSNKVGKLSENSSEIKKGRITPSQVKMSPSYHQSKGDPTAKKGTSEPVLDPQQIQAFDQLCRLYRGSSRLALLTELSQNRSSESYRPFSGSQSAPAFNSIFQNENFQLQLIPPPVTED
